Several values for one entry are separate records, joined by “and”; a condition that tells them apart may be missing. Equal values may be shown once. Some of the results follow. Repeats in this data set agree poorly, so a single value says little.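 HEK293T cells were given each compound shortly before transfection with a reporter in which red mCherry is followed by the SARS-CoV-2 frameshift element and then GFP in the −1 frame, so GFP appears only after frameshifting.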

The experiment deals with HEK293T. The experiment is described as follows: percent viability (nuclei count) relative to control; higher = more viable cells. To be noted: 10 µM; 24 h.
For `CNNCc1ccc(C(=O)NC(C)C)cc1` [procarbazine], the percent viability is 170% and 266%. Next, `CO[C@@H]1[C@@H](OC(N)=O)[C@@H](O)[C@H](Oc2ccc3c(O)c(NC(=O)c4ccc(O)c(CC=C(C)C)c4)c(=O)oc3c2C)OC1(C)C` [novobiocin]: 194%; `N[C@@H](Cc1cc(I)c(Oc2ccc(O)c(I)c2)c(I)c1)C(=O)O`: 329%; `C/C=C/c1ccc(OC)cc1` [Anethole, trans-]: 118%.

For the molecule `OC[C@@H](O)CN1CCN(c2ccccc2)CC1` [levodropropizine], the percent viability is 177%. Turning to `CCOC(=O)C1=C(C)NC(C)=C(C(=O)OCC)C1c1cccc2nonc12` [darodipine], the percent viability worked out at 87.4%.

In the case of `C[C@]12CC[C@H]3C(=CCc4cc(O)ccc43)[C@@H]1CCC2=O` [Equilin], the percent viability is 300%.

Turning to `Cc1nc2ccccn2c(=O)c1CCN1CCC(C(=O)c2ccc(F)cc2)CC1` [pirenperone], the percent viability came to 124%. The same measure for `NC(=O)c1ccc[n+]([C@@H]2O[C@H](COP(=O)([O-])OP(=O)(O)OC[C@H]3O[C@@H](n4cnc5c(N)ncnc54)[C@H](O)[C@@H]3O)[C@@H](O)[C@H]2O)c1`: 265%; for `CC[C@@]1(O)C(=O)OCc2c1cc1n(c2=O)Cc2cc3c(CN(C)C)c(O)ccc3nc2-1`: 24.6%; for `O=S(=O)(O)c1cc(I)c(O)c2ncccc12`: 158%. For the molecule `CN1CC(=O)N=C1NC(=O)Nc1cccc(Cl)c1` [fenobam], the percent viability was 138%. Turning to `CC(=O)Nc1ccc(OCCOCCOc2ccc(NC(C)=O)cc2)cc1` [diamfenetide], the percent viability came to 126%.

`CCCCCCOC(=O)NC(=N)c1ccc(NCc2nc3cc(C(=O)N(CCC(=O)OCC)c4ccccn4)ccc3n2C)cc1` [Dabigatran etexilate]: the percent viability was 111%.

(Values after the supplement of paper PMC8256030.)
